{"source": "PubChem BioAssay AID1671195 – Yale University, 2021", "assay": "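Genes whose knockdown alters LDL uptake in liver cancer cells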 (primary screen)", "cells": "human Huh7 hepatoma cells", "reagent": "siRNA pool against human genes, 18 nM", "duration": "about 2 to 2.5 days of knockdown, then 8 h LDL uptake", "treatment": "DiI-labelled LDL at 30 µg/ml for 8 h, in lipoprotein-deficient serum medium", "detection": "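Fluorescent LDL signal imaged in cells, scaled to the plate median, robust z-score for each replicate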", "direction": "robust z-score: higher = more LDL uptake after knockdown", "hit rule": "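a gene counts as active if at least two replicate z-scores exceed ±2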", "note": "In all, the deposit lists about 22,000 reagents; shown is an unselected part. About 1,510 of all reagents (6.9%) were called active. 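Active includes knockdowns raising or lowering LDL uptake; positive z-scores mean more uptake, negative mean less.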"}
{"gene": "DBNL (GeneID 28988)", "robust z-score, replicate 1": 1.3, "robust z-score, replicate 2": -0.321, "robust z-score, replicate 3": 0.0876, "Outcome": "inactive"}
{"gene": "VWA1 (GeneID 64856)", "robust z-score, replicate 1": -1.04, "robust z-score, replicate 2": -0.905, "robust z-score, replicate 3": -0.56, "Outcome": "inactive"}
{"gene": "PARPBP (GeneID 55010)", "robust z-score, replicate 1": 0.00389, "robust z-score, replicate 2": 1.76, "robust z-score, replicate 3": 0.652, "Outcome": "inactive"}
{"gene": "KCNN1 (GeneID 3780)", "robust z-score, replicate 1": -0.768, "robust z-score, replicate 2": -0.587, "robust z-score, replicate 3": -0.606, "Outcome": "inactive"}
{"gene": "JARID2 (GeneID 3720)", "robust z-score, replicate 1": -1.69, "robust z-score, replicate 2": -1.46, "robust z-score, replicate 3": -1.49, "Outcome": "inactive"}
{"gene": "IRF6 (GeneID 3664)", "robust z-score, replicate 1": 0.3, "robust z-score, replicate 2": 0.345, "robust z-score, replicate 3": 0.464, "Outcome": "inactive"}
{"gene": "C3orf62 (GeneID 375341)", "robust z-score, replicate 1": 1.81, "robust z-score, replicate 2": 2.01, "robust z-score, replicate 3": 1.9, "Outcome": "inactive"}
{"gene": "NINJ1 (GeneID 4814)", "robust z-score, replicate 1": -0.451, "robust z-score, replicate 2": 0.464, "robust z-score, replicate 3": 0.41, "Outcome": "inactive"}
{"gene": "PDCD2 (GeneID 5134)", "robust z-score, replicate 1": -0.134, "robust z-score, replicate 2": -0.0764, "robust z-score, replicate 3": -0.143, "Outcome": "inactive"}
{"gene": "ASB1 (GeneID 51665)", "robust z-score, replicate 1": -0.153, "robust z-score, replicate 2": 0.432, "robust z-score, replicate 3": 1.05, "Outcome": "inactive"}
{"gene": "MCEMP1 (GeneID 199675)", "robust z-score, replicate 1": -0.626, "robust z-score, replicate 2": -0.214, "robust z-score, replicate 3": -0.27, "Outcome": "inactive"}
{"gene": "ANXA8L1 (GeneID 728113)", "robust z-score, replicate 1": 2.52, "robust z-score, replicate 2": 0.563, "robust z-score, replicate 3": 1.39, "Outcome": "inactive"}

Targets listed so far whose gene name begins with P or p:
{"gene": "PARPBP (GeneID 55010)", "robust z-score, replicate 1": 0.00389, "robust z-score, replicate 2": 1.76, "robust z-score, replicate 3": 0.652, "Outcome": "inactive"}
{"gene": "PDCD2 (GeneID 5134)", "robust z-score, replicate 1": -0.134, "robust z-score, replicate 2": -0.0764, "robust z-score, replicate 3": -0.143, "Outcome": "inactive"}
